# Test results reported in publication PMC13335541.
# Chains of the proteins cited; added tags and fusions are not shown. Residues count along the entry.
# UniProt E9Q557: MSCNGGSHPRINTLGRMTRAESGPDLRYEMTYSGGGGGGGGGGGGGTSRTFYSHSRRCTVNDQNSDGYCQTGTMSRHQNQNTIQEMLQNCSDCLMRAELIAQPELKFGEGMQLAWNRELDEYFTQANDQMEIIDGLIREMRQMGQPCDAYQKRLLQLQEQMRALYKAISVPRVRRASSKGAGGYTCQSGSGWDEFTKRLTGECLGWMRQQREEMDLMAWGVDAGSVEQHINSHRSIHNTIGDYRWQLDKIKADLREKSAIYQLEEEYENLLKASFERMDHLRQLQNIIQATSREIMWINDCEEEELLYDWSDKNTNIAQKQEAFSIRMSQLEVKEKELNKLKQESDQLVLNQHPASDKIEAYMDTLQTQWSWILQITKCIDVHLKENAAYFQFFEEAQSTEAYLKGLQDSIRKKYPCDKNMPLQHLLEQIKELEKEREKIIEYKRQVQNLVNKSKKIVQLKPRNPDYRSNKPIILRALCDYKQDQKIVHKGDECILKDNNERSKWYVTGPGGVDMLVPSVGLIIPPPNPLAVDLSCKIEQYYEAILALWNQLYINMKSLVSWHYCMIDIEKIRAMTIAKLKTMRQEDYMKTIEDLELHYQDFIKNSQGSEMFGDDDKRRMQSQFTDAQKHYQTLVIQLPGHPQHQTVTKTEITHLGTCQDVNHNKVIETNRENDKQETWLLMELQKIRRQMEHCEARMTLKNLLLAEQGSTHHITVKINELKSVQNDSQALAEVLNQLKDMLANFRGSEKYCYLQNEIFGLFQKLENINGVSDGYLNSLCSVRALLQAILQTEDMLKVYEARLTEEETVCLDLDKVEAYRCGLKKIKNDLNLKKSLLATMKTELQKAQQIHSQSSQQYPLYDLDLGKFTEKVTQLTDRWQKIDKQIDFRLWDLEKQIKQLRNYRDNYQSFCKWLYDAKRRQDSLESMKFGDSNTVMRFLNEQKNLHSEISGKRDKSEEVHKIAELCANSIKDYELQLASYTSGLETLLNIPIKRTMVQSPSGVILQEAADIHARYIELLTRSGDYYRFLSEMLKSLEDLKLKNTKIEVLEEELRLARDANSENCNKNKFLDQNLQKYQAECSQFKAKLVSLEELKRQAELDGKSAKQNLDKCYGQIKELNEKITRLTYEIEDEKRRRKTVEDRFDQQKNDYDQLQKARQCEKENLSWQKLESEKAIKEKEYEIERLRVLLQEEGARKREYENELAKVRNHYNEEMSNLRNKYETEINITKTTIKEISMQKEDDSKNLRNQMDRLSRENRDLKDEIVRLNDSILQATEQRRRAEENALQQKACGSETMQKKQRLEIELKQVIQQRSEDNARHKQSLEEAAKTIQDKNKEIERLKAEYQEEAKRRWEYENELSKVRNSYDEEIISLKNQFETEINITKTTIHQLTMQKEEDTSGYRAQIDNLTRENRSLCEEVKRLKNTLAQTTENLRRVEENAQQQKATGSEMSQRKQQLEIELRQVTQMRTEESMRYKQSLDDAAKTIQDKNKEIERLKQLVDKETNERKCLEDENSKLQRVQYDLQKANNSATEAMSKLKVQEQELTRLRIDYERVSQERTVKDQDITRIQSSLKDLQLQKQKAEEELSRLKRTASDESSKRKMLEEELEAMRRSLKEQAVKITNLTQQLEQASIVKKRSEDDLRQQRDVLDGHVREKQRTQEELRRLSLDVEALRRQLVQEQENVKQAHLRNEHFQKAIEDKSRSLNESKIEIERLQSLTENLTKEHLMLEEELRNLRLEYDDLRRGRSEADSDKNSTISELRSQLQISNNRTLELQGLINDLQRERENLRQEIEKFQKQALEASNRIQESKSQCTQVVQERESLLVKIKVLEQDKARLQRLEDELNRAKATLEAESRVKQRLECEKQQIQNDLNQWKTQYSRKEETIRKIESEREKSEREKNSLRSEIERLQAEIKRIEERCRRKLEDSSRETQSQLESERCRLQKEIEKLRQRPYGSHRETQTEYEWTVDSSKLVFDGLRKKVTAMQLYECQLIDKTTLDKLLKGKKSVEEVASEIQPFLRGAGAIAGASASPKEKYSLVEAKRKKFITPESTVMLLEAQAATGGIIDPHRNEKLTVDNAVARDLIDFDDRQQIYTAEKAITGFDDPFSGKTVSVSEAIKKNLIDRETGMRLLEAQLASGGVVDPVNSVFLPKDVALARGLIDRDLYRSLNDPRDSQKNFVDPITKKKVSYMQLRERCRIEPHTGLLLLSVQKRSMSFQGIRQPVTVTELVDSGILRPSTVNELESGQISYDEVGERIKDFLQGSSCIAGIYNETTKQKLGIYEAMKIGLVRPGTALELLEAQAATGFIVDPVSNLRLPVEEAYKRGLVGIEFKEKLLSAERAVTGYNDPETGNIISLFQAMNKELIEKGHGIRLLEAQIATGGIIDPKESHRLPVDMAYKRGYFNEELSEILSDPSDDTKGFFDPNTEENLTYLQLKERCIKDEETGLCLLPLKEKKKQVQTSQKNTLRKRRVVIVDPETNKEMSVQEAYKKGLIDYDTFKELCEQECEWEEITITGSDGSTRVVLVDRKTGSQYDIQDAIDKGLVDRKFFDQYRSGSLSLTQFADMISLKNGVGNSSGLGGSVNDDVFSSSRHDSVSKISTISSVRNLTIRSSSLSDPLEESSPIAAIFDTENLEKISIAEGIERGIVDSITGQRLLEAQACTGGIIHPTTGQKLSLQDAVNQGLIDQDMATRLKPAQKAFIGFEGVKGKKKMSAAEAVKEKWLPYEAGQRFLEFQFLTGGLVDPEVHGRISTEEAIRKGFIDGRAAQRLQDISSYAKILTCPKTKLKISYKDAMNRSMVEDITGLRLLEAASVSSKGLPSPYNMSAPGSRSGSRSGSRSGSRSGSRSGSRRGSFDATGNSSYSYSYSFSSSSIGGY
# UniProt P15209, residues 32-821: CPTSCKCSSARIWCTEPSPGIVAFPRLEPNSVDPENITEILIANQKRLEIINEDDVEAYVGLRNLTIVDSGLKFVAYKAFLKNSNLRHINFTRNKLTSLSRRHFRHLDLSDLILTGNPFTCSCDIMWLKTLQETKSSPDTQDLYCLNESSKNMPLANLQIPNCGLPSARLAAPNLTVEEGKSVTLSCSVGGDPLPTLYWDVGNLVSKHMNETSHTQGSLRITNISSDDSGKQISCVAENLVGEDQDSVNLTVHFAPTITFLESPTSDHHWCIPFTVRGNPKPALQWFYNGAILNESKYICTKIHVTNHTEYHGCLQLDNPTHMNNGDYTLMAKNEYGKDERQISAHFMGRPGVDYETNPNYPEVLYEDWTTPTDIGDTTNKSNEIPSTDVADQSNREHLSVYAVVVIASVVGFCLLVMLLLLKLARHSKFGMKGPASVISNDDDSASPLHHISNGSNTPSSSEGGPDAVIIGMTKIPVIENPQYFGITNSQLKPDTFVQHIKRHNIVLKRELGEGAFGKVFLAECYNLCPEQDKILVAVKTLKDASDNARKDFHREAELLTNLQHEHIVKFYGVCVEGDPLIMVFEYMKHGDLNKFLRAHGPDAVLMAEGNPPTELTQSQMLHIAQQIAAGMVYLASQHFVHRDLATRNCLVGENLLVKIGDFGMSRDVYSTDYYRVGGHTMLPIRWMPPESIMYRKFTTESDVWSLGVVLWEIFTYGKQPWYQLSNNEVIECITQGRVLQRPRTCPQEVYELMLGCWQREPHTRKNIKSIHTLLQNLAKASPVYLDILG
# These are yes or no findings as the source states them, for the method shown. Binding seen in cells or lysates may run through a third protein. Some results given as binding are weak or reduced against the parent protein; the word gives no strength.
# Target: DSP (mouse (endogenous in DRG)) (UniProt E9Q557)
# Experiment: proximity ligation; Duolink PLA on 15 µm cryostat sections of L5 DRG of sham and SNI mice (6 weeks post-injury), pairs of primary antibodies from two species; more PLA signals per cell in SNI than in sham
substance,measurement,value
TrkB (from UniProt P15209 32-821) (receptor),binding,binds
